Data as given in PubChem BioAssay AID1259254 (NCATS, 2017)

Aim: 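Genome-wide screen for genes that prevent DNA re-replication in cancer cells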 (primary screen)
System: human HCT116 colorectal cancer cells
Knock-down reagent: single siRNA against human genes
Duration: 3 days
Detection: 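Nuclei stained with Hoechst and imaged; cell-cycle phase assigned by DNA content; G2 share scaled per plate, non-targeting siRNA 0%, GMNN siRNA 100%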
Scale: G2 robust z-score and G2 cells, % of GMNN control: higher = more G2 cells, more excess DNA replication; raw share of cells in G2: higher = larger share of cells with G2 DNA content
Call rule: 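An siRNA counts as active if its G2 robust z-score lies at least 5 MADs above the screen median; here such calls match roughly 38% of GMNN control or more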
In all, the deposit lists about 59,000 reagents; this is a random part of them. Over the whole deposit, about 1,550 (2.6%) are marked active. 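G2 share is only a proxy for re-replication; each gene was hit by three separate siRNAs, and active genes were retested.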 The raw values are shown without normalisation. A number with no mark means an inactive call. The numbers tell different reagents against one gene apart. Reagent sequences are not shown. Not given: the amount of reagent.

The opening 5 records, to show the layout:
gene symbol | siRNA no. | G2 robust z-score | G2 cells, % of GMNN control | raw share of cells in G2 (%)
FEZ1 | 1 | -0.553 | -0.923 | 4.91
FEZ1 | 2 | 0.0238 | 3.14 | 5.25
FEZ1 | 3 | -0.646 | -1.58 | 2.83
CTH | 1 | 1.2 | 11.4 | 9.04
CTH | 2 | -0.323 | 0.693 | 5.25

The listing, repeating the preview:
gene symbol | siRNA no. | G2 robust z-score | G2 cells, % of GMNN control | raw share of cells in G2 (%)
FEZ1 | 1 | -0.553 | -0.923 | 4.91
FEZ1 | 2 | 0.0238 | 3.14 | 5.25
FEZ1 | 3 | -0.646 | -1.58 | 2.83
CTH | 1 | 1.2 | 11.4 | 9.04
CTH | 2 | -0.323 | 0.693 | 5.25
CTH | 3 | 5.84 (active) | 44 | 19.3
FCER1A | 1 | -0.598 | -1.24 | 3.22
FCER1A | 2 | -1.01 | -4.15 | 3.73
FCER1A | 3 | -1.12 | -4.94 | 3.39
PTGER1 | 1 | 1.08 | 10.6 | 8.61
PTGER1 | 2 | 2.51 | 20.6 | 12.6
PTGER1 | 3 | 0.304 | 5.11 | 5.84
RANBP17 | 1 | 0.538 | 6.75 | 8.44
RANBP17 | 2 | 1.11 | 10.7 | 8.15
RANBP17 | 3 | 0.0257 | 3.15 | 5.37
HMGN4 | 1 | -0.0276 | 2.77 | 7.57
HMGN4 | 2 | -0.00891 | 2.9 | 4.78
HMGN4 | 3 | -0.951 | -3.73 | 4.08
DPAGT1 | 1 | -0.437 | -0.108 | 4.92
DPAGT1 | 2 | -1.35 | -6.51 | 2.61
DPAGT1 | 3 | -0.571 | -1.05 | 3.74
NOTO | 1 | 0.232 | 4.6 | 5.96
NOTO | 2 | 0.444 | 6.09 | 7.34
NOTO | 3 | 5.48 (active) | 41.5 | 23.8
TMEM97 | 1 | 0.295 | 5.04 | 5.78
TMEM97 | 2 | -0.307 | 0.809 | 4.85
TMEM97 | 3 | -0.361 | 0.426 | 3.39
LHX8 | 1 | -1.16 | -5.16 | 3.67
LHX8 | 2 | 0.7 | 7.89 | 7.17
LHX8 | 3 | -1.3 | -6.17 | 2.55
SPATA7 | 1 | -0.172 | 1.76 | 5.2
SPATA7 | 2 | -0.807 | -2.71 | 3.01
SPATA7 | 3 | -0.804 | -2.69 | 2.28
EBLN1 | 1 | -0.0978 | 2.28 | 4.77
EBLN1 | 2 | 2.01 | 17.1 | 10.7
EBLN1 | 3 | -0.138 | 2 | 4.99
YIPF7 | 1 | 1.42 | 13 | 8.37
YIPF7 | 2 | 1.59 | 14.2 | 8.53
YIPF7 | 3 | 6.03 (active) | 45.4 | 17.1
NECAB2 | 1 | 0.885 | 9.19 | 7.64
NECAB2 | 2 | 0.589 | 7.11 | 6.53
NECAB2 | 3 | 4.59 | 35.2 | 21.9
SLC26A10P | 1 | 1.08 | 10.6 | 8.08
SLC26A10P | 2 | 2.08 | 17.6 | 12.9
SLC26A10P | 3 | 3.28 | 26 | 13.7
NPHP3 | 1 | -0.942 | -3.66 | 2.97
NPHP3 | 2 | -0.345 | 0.541 | 4.17
NPHP3 | 3 | -0.0896 | 2.34 | 7.22
